Measurements reported in PubChem BioAssay AID1224826 (NIAID, 2016).
Shown is a random part of about 17,000 deposited reagents. Over the whole deposit, about 1,110 (6.6%) got an active call. 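Active means lowered or raised reporter signal; replicate intensities are raw and not normalised per plate.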 Not all columns of the deposit are shown.

- Test: 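Knock-downs that raise or lower Tnf reporter signal after endotoxin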 (primary screen)
- System: RAW264.7 G9 macrophages from mouse bearing reporters for p65 (GFP) and the Tnf promoter (mCherry)
- Knock-down reagent: siRNA pool against mouse genes, 100 nM
- Time to read-out: 16 h of LPS stimulation, after 2 days of siRNA transfection
- Treatment: bacterial lipopolysaccharide (Salmonella minnesota R595), 10 ng/ml
- Measurement: 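Imaged Tnf reporter mCherry in nuclei, minus background, normalised per plate to the median and expressed as robust z-scores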
- Scale: Tnf reporter robust z-score: higher = stronger Tnf promoter reporter signal after LPS
- Active means: 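Called active when robust z-score is at most -1.3, matching the median of the Tlr4 knock-down control, or over 3; control wells and wells with under 50 cells never active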
- Meaning of the calls: active = Tnf reporter clearly lowered or raised; inactive = no clear change in Tnf reporter

{"target": "Fundc1 (GeneID 72018)", "Tnf reporter robust z-score": 2.09, "fewer than 50 cells in well": "enough cells in well", "Outcome": "inactive"}
{"target": "H2-M10.2 (GeneID 333715)", "Tnf reporter robust z-score": 0.43, "fewer than 50 cells in well": "enough cells in well", "Outcome": "inactive"}
{"target": "Skint10 (GeneID 230613)", "Tnf reporter robust z-score": -0.88, "fewer than 50 cells in well": "enough cells in well", "Outcome": "inactive"}
{"target": "Nmu (GeneID 56183)", "Tnf reporter robust z-score": 0.58, "fewer than 50 cells in well": "enough cells in well", "Outcome": "inactive"}
{"target": "Npy1r (GeneID 18166)", "Tnf reporter robust z-score": 1.59, "fewer than 50 cells in well": "enough cells in well", "Outcome": "inactive"}
{"target": "Dynlt1b (GeneID 21648)", "Tnf reporter robust z-score": -0.15, "fewer than 50 cells in well": "enough cells in well", "Outcome": "inactive"}
{"target": "Btk (GeneID 12229)", "Tnf reporter robust z-score": -0.41, "fewer than 50 cells in well": "enough cells in well", "Outcome": "inactive"}
{"target": "A330035P11Rik (GeneID 319727)", "Tnf reporter robust z-score": -0.87, "fewer than 50 cells in well": "enough cells in well", "Outcome": "inactive"}
{"target": "Or5h22 (GeneID 258392)", "Tnf reporter robust z-score": -0.38, "fewer than 50 cells in well": "enough cells in well", "Outcome": "inactive"}
{"target": "Mlf1 (GeneID 17349)", "Tnf reporter robust z-score": 0.2, "fewer than 50 cells in well": "enough cells in well", "Outcome": "inactive"}
{"target": "Uts2r (GeneID 217369)", "Tnf reporter robust z-score": 0.54, "fewer than 50 cells in well": "enough cells in well", "Outcome": "inactive"}
{"target": "2510039O18Rik (GeneID 77034)", "Tnf reporter robust z-score": -0.2, "fewer than 50 cells in well": "enough cells in well", "Outcome": "inactive"}
{"target": "Kcnt1 (GeneID 227632)", "Tnf reporter robust z-score": -0.82, "fewer than 50 cells in well": "enough cells in well", "Outcome": "inactive"}
{"target": "Minar1 (GeneID 209743)", "Tnf reporter robust z-score": 0.93, "fewer than 50 cells in well": "enough cells in well", "Outcome": "inactive"}

2 consecutive reagents from above, quoted:
{"target": "2510039O18Rik (GeneID 77034)", "Tnf reporter robust z-score": -0.2, "fewer than 50 cells in well": "enough cells in well", "Outcome": "inactive"}
{"target": "Kcnt1 (GeneID 227632)", "Tnf reporter robust z-score": -0.82, "fewer than 50 cells in well": "enough cells in well", "Outcome": "inactive"}
